# Literature values as cited in patent US20040127489A1, “Novel antipsychotic combination therapies and compositions useful therein” (priority 2002, published 2004).
# For at least one compound, name, drawing or mass did not settle the structure.
# System: Wistar rats
# Conditions: animal models; Waddenberg et al 2000 and 2001; cited from earlier work
smiles,measurement,value
CN1CCN(C2=Nc3cc(Cl)ccc3Nc3ccccc32)CC1 [clozapine],separation of CAT from suppression of CAR,pronounced separation of CAT from suppression of CAR
